We go through one substance from PMC12181424 (Scientific Reports, 2025).

A short description of series [1]: general procedure: Fmoc solid-phase peptide synthesis; 2-chlorotrityl resin; HATU/DIPEA. As to conditions: whole synthesis, overall, scale 0.779 mmol.
A short description of series [2]: general procedure: Fmoc solid-phase peptide synthesis; H-L-Ile-2-chlorotrityl resin (0.74 mmol/g); HATU/DIPEA. The note with it: whole synthesis, scale 0.779 mmol.

In the case of “(2-((S)-5-guanidino-2-(3-methyl-2-((S)-2-((S)-2-methylbutanamido)-3-phenylpropanamido)but-2-enamido)pentanamido)-3-methylbut-2-enoyl)-L-leucine”, the isolated yield in series [1] was determined as 17%. For the same substance, the isolated mass in series [2] is on record as 54.5 mg.
